According to paper PMC7888682:
These are yes or no findings as the source states them, for the method shown. In cells and extracts the contact can be indirect. Here binding means that the protein was enriched with, or labelled near, the bait; the list need not be complete.

Protein sequences, listed by entry. Tags and fused reporters are not part of them.
UniProt A2A432: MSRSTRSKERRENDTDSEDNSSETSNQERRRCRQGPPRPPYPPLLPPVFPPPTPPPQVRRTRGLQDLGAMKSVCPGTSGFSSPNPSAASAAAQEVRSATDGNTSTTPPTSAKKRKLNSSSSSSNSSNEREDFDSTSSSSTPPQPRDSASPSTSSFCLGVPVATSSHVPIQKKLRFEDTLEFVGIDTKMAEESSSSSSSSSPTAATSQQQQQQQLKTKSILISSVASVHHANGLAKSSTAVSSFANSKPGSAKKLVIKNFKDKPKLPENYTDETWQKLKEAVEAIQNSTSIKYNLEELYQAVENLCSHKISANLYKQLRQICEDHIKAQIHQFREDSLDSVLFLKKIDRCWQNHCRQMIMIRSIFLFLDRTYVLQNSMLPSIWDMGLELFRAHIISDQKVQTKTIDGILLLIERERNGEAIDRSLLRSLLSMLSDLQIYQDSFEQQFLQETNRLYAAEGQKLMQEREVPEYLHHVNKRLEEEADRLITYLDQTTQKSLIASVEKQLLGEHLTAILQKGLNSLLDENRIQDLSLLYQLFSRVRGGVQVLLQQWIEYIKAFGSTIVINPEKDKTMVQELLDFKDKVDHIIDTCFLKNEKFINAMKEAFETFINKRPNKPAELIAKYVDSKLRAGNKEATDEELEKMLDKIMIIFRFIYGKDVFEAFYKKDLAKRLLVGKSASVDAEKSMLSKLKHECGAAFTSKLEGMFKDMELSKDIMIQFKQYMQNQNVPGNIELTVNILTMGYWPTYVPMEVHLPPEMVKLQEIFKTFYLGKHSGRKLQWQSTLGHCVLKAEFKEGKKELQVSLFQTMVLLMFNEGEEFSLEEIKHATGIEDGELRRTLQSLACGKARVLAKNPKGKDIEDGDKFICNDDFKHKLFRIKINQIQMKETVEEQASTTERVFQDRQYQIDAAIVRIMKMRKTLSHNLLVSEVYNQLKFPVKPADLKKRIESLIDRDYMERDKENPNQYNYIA
UniProt Q80TR8: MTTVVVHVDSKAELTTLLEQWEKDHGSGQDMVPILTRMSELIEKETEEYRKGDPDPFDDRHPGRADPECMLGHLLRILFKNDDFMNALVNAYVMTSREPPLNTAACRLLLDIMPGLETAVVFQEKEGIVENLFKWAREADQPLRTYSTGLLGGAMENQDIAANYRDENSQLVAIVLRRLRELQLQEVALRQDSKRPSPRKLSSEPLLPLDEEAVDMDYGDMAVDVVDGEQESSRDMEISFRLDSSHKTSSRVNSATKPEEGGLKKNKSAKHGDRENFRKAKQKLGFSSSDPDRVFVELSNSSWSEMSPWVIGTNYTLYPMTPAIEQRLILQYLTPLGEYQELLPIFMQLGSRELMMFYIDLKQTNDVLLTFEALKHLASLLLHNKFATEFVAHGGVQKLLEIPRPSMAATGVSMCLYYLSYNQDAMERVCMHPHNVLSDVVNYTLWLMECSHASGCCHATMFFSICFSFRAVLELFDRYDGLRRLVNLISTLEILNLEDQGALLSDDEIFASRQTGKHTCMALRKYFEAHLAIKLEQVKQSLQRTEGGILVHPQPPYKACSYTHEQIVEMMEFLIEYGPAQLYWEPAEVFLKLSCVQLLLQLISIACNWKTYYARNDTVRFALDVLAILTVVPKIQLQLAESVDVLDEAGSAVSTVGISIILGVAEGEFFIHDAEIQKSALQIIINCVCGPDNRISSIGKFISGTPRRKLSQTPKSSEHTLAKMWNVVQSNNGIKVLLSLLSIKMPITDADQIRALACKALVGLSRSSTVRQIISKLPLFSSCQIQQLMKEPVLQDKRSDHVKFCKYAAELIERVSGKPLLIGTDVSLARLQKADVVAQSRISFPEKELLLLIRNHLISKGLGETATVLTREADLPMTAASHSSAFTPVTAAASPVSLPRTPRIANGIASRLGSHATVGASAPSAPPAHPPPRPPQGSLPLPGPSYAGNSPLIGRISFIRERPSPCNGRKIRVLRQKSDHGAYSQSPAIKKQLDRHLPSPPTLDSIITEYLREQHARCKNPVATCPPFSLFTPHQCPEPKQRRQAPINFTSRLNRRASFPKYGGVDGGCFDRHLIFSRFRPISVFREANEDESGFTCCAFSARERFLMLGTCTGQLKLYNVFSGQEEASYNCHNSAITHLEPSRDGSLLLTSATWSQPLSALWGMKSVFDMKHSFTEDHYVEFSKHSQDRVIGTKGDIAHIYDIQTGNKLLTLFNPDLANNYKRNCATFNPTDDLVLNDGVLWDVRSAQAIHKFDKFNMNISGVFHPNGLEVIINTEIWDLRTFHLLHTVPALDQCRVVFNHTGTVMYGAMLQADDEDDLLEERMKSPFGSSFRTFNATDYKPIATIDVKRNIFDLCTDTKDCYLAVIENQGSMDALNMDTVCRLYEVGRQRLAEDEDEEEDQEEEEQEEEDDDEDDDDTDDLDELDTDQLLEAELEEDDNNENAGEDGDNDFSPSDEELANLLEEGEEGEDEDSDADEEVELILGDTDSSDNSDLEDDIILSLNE
UniProt P70388: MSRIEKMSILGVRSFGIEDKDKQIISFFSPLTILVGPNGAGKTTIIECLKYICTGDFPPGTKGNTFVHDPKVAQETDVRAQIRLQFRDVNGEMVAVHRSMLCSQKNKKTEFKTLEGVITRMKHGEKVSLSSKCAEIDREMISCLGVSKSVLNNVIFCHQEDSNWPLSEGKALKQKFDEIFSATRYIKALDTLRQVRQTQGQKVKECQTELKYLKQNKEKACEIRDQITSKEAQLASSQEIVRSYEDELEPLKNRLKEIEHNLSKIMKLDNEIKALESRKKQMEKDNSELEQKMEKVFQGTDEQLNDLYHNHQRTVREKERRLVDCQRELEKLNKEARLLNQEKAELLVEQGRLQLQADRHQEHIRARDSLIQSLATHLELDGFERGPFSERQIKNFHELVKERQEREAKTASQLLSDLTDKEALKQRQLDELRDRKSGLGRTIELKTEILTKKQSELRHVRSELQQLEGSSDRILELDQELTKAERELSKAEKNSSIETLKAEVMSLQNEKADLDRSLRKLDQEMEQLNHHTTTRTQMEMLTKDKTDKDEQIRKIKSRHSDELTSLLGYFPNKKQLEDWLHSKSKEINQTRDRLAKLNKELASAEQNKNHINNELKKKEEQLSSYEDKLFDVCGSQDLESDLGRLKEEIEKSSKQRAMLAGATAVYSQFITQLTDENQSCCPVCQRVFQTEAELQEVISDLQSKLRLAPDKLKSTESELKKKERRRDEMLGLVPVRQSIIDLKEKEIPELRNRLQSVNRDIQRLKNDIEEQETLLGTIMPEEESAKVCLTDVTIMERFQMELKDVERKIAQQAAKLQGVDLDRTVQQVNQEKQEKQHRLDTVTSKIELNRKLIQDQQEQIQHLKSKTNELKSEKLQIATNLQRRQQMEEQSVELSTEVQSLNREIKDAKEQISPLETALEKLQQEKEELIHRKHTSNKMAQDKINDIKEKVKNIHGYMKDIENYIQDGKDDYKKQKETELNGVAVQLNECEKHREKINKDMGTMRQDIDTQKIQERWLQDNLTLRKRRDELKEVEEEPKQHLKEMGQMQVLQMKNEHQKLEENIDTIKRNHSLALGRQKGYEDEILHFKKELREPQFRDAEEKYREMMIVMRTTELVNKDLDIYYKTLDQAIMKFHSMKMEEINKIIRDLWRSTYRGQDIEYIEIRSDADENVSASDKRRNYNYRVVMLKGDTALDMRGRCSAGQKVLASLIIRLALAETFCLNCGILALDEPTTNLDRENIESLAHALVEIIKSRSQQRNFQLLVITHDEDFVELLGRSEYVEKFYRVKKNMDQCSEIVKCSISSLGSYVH
UniProt O88543: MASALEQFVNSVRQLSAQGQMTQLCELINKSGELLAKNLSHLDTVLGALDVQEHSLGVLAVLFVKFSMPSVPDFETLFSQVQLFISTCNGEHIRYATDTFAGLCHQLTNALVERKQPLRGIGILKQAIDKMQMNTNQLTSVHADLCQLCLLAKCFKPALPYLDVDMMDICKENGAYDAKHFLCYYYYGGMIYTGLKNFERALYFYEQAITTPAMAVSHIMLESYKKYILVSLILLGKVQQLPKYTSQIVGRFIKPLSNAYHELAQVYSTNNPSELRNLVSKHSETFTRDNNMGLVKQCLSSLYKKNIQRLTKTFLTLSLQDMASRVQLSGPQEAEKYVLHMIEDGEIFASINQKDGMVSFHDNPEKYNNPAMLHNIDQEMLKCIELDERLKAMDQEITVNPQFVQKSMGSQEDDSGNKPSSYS
UniProt P97868: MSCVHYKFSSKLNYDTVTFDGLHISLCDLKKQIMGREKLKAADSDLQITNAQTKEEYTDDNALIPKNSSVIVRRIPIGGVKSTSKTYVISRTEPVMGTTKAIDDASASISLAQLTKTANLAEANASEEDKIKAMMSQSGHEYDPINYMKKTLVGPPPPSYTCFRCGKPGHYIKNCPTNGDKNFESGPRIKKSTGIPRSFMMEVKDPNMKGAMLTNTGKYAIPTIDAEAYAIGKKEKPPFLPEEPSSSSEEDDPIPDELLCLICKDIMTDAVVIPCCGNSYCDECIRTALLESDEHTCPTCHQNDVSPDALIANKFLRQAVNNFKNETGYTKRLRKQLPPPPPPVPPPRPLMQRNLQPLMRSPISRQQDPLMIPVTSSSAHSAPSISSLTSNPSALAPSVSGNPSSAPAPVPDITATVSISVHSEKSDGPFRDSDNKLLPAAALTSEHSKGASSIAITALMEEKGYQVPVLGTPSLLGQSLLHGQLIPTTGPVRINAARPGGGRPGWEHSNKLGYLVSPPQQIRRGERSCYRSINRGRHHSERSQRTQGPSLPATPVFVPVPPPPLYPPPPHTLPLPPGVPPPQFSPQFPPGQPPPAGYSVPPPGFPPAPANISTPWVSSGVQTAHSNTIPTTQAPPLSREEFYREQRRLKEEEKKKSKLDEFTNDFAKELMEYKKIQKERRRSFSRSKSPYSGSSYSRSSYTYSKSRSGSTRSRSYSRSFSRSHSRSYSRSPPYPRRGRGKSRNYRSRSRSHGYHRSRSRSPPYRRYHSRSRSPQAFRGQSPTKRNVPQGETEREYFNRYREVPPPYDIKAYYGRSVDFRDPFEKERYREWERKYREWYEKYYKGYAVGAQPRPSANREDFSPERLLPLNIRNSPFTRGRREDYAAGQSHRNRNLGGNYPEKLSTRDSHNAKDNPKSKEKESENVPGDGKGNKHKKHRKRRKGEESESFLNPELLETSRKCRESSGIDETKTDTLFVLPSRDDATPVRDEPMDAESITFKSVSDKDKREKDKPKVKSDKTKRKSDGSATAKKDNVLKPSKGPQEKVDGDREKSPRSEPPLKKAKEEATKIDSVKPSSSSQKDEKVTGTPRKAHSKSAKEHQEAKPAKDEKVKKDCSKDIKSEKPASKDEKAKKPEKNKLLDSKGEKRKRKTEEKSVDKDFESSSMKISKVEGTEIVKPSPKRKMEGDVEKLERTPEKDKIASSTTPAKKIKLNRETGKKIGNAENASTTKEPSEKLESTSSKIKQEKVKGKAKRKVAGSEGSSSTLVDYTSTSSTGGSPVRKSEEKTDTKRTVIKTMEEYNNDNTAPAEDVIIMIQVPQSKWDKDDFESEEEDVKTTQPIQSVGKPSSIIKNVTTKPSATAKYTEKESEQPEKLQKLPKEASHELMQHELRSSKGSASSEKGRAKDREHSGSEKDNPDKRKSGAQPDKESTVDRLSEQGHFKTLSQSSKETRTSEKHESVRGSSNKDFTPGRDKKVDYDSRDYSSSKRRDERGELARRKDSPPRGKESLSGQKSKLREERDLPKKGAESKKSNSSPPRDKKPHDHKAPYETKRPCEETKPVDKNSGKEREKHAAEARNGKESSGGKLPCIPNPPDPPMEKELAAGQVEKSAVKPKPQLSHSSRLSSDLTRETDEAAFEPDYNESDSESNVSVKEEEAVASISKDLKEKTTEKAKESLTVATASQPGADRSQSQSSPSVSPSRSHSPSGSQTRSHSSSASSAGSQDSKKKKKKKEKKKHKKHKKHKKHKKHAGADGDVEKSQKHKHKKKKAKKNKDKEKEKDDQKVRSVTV

B1: MRE11A (protein, UniProt Q61216 1-706)
chain: MSPTDPLDDEDTFKILVATDIHLGFMEKDAVRGNDTFVTFDEILRLALENEVDFILLGGDLFHENKPSRKTLHSCLELLRKYCMGDRPVQFEVISDQSVNFGFSKFPWVNYQDGNLNISIPVFSIHGNHDDPTGADALCALDVLSCAGFVNHFGRSMSVEKVDISPVLLQKGSTKLALYGLGSIPDERLYRMFVNKKVTMLRPKEDENSWFNLFVIHQNRSKHGNTNFIPEQFLDDFIDLVIWGHEHECKIGPIKNEQQLFYVSQPGSSVVTSLSPGEAVKKHVGLLRIKGRKMNMQKLPLRTVRRFFIEDVVLANHPNLFNPDNPKVTQAIQSFCLEKIEEMLDSAERERLGNPQQPGKPLIRLRVDYSGGFEPFNVLRFSQKFVDRVANPKDVIHFFRHREQKGKTGEEINFGMLITKPASEGATLRVEDLVKQYFQTAEKNVQLSLLTERGMGEAVQEFVDKEEKDAIEELVKYQLEKTQRFLKERHIDALEDKIDEEVRRFRESRQRNTNEEDDEVREAMSRARALRSQSETSTSAFSAEDLSFDTSEQTANDSDDSLSAVPSRGRGRGRGRRGARGQSSAPRGGSQRGRDTGLEITTRGRSSKATSSTSRNMSIIDAFRSTRQQPSRNVAPKNYSETIEVDDSDEDDIFPTNSRADQRWSGTTSSKRMSQSQTAKGVDFESDEDDDDDPFMSSSCPRRNRR
B2: SMC1A (protein, UniProt Q9CU62 1-1233)
chain: MGFLKLIEIENFKSYKGRQIIGPFQRFTAIIGPNGSGKSNLMDAISFVLGEKTSNLRVKTLRDLIHGAPVGKPAANRAFVSMVYSEEGAEDRTFARVIVGGSSEYKINNKVVQLHEYSEELEKLGILIKARNFLVFQGAVESIAMKNPKERTALFEEISRSGELAQEYDKRKKEMVKAEEDTQFNYHRKKNIAAERKEAKQEKEEADRYQRLKDEVVRAQVQLQLFKLYHNEVEIEKLNKELASKNKEIEKDKKRMDKVEDELKEKKKELGKMMREQQQIEKEIKEKDSELNQKRPQYIKAKENTSHKIKKLEAAKKSLQNAQKHYKKRKGDMDELEKEMLSVEKARQEFEERMEEESQSQGRDLTLEENQVKKYHRLKEEASKRAATLAQELEKFNRDQKADQDRLDLEERKKVETEAKIKQKLREIEENQKRIEKLEEYITTSKQSLEEQKKLEGELTEEVEMAKRRIDEINKELNQVMEQLGDARIDRQESSRQQRKAEIMESIKRLYPGSVYGRLIDLCQPTQKKYQIAVTKVLGKNMDAIIVDSEKTGRDCIQYIKEQRGEPETFLPLDYLEVKPTDEKLRELKGAKLVIDVIRYEPPHIKKALQYACGNALVCDNVEDARRIAFGGHQRHKTVALDGTLFQKSGVISGGASDLKAKARRWDEKAVDKLKEKKERLTEELKEQMKAKRKEAELRQVQSQAHGLQMRLKYSQSDLEQTKTRHLALNLQEKSKLESELANFGPRINDIKRIIQSREREMKDLKEKMNQVEDEVFEEFCREIGVRNIREFEEEKVKRQNEIAKKRLEFENQKTRLGIQLDFEKNQLKEDQDKVHMWEQTVKKDENEIEKLKKEEQRHMKIIDETMAQLQDLKNQHLAKKSEVNDKNHEMEEIRKKLGGANKEMTHLQKEVTAIETKLEQKRSDRHNLLQACKMQDIKLPLSKGTMDDISQEEGSSQGEESVSGSQRTSSIYAREALIEIDYGDLCEDLKDAQAEEEIKQEMNTLQQKLNEQQSVLQRIAAPNMKAMEKLESVRDKFQETSDEFEAARKRAKKAKQAFEQIKKERFDRFNACFESVATNIDEIYKALSRNSSAQAFLGPENPEEPYLDGINYNCVAPGKRFRPMDNLSGGEKTVAALALLFAIHSYKPAPFFVLDEIDAALDNTNIGKVANYIKEQSTCNFQAIVISLKEEFYTKAESLIGVYPEQGDCVISKVLTFDLTKYPDANPNPNEQ
B3: NBS1 (protein, UniProt Q9R207 1-751)
chain: MWKLLPAAGAAPGEPYRLLAGVEYVVGRKNCGILIENDQSISRNHAVLTVNFPVTSLSQTDEIPTLTIKDNSKYGTFVNEEKMQTGLSCTLKTGDRVTFGVFESKFRVEYEPLVVCSSCLDVSGKTVLNQAILQLGGLTANNWTEECTHLVMSAVKVTIKTICALICGRPIIKPEYFSEFLKAVESKKQPPDIESFYPPIDEPAIGSKSVDLSGRHERKQIFKGKTFVFLNAKQHKKLSSAVAFGGGEARLMAEDDEEEQSFFSAPGTCVVDVGITNTQLIISHSQKKWIHLIMDTLQRNGLRPIPEAEIGLAVIFMTTENYCNPQGQPCTELKTTTPGPSLSQVLSANGKIIPSAPVNMTTYVADTESEPADTCMPLSERPEEVKIPGLEQSSRKLSQETFNIKEAPKPSSKANNVASDTLVRGKTPSYQLSPMKFPVANKNKDWTSQQQQNSIKNYFQPCTRKRERDEDNPELSSCKSSRMELSCSLLEQTQPAGPSLWKSKEHQSQNATLDREADTSSVGGMDIELNRKSPDRKPLPTETLRPRKRKDVDLATEEEVLEELLRSTKPELAVQVKVEKQEADDTIRKKPRMDAERNRPLNGGSEPESNSALQEDEREKKDELQTESWSTKHEIANSDGLQDSSEELPRKLLLTEFRSLVVSNHNSTSRNLCVNECGPLKNFKKFKKATFPGAGKLPHIIGGSDLVGHHARKNTELEEWLKQEMEVQKQQAKEESLADDLFRYNPNVKRR
B4: Top1 (protein, UniProt Q04750 1-767)
chain: MSGDHLHNDSQIEADFRLNDSHKHKDKHKDREHRHKEHKKDKDKDREKSKHSNSEHKDSEKKHKEKEKTKHKDGSSEKHKDKHKDRDKERRKEEKIRAAGDAKIKKEKENGFSSPPRIKDEPEDDGYFAPPKEDIKPLKRLRDEDDADYKPKKIKTEDIKKEKKRKSEEEEDGKLKKPKNKDKDKKVAEPDNKKKKPKKEEEQKWKWWEEERYPEGIKWKFLEHKGPVFAPPYEPLPESVKFYYDGKVMKLSPKAEEVATFFAKMLDHEYTTKEIFRKNFFKDWRKEMTNDEKNTITNLSKCDFTQMSQYFKAQSEARKQMSKEEKLKIKEENEKLLKEYGFCVMDNHRERIANFKIEPPGLFRGRGNHPKMGMLKRRIMPEDIIINCSKDAKVPSPPPGHKWKEVRHDNKVTWLVSWTENIQGSIKYIMLNPSSRIKGEKDWQKYETARRLKKCVDKIRNQYREDWKSKEMKVRQRAVALYFIDKLALRAGNEKEEGETADTVGCCSLRVEHINLHPELDGQEYVVEFDFPGKDSIRYYNKVPVEKRVFKNLQLFMENKQPEDDLFDRLNTGILNKHLQDLMEGLTAKVFRTYNASITLQQQLKELTAPDENVPAKILSYNRANRAVAILCNHQRAPPKTFEKSMMNLQSKIDAKKDQLADARRDLKSAKADAKVMKDAKTKKVVESKKKAVQRLEEQLMKLEVQATDREENKQIALGTSKLNYLDPRITVAWCKKWGVPIEKIYNKTQREKFAWAIDMTDEDYEF
B5: DDB2 (protein, UniProt Q99J79 1-432)
chain: MAPKKCPETQKSPDVAVLLRSKSRRGPQELEPEAKKLRVQGPVSSRTCESCCLLAELSSLQIPSRSSSIVRDLYQHKLGKATWSSLQQGLQKSFLHSLASYQVFRKAAPFDRRTTSLAWHPTHPSTLAVGSKGGDIMIWNFGIKDKPIFLKGIGAGGSITGLKFNHLNTNQFFASSMEGTTRLQDFKGNILRVYTSSNSCKVWFCSLDVSAKSRVVVTGDNMGHVILLSTDGKELWNLRMHKKKVAHVALNPCCDWLLATASIDQTVKIWDLRQIKGKDSFLYSLPHRHPVNAACFSPDGARLLTTDQNNEIRVYSASQWDSPLNLISHPHRHFQHLTPIKATWHSRHNLIVVGRYPDPNLKSCVPYELRTIDVFDGSSGKMMCQLYDPGYSGITSLNEFNPMGDTLASTMGYHILIWSQEEDGSQKDHERL

What was measured:
[1] = molecular target: Cullin-4b (mouse (endogenous in CD4+ T cells)) (UniProt A2A432); experiment: affinity purification with mass spectrometry; endogenous IP from mouse CD4+ T cells activated with anti-CD3/CD28 for 40 h; lysate in 1% Triton-X, 50 mM Tris pH 8, 100 mM NaCl; Dynabeads with Cul4b antibody, DCAF1 antibody or rabbit IgG, overnight in cold room; 4 washes PBS-Tween 0.2%; LC-MS/MS
[2] = molecular target: Vprbp (DCAF1) (mouse (endogenous in CD4+ T cells)) (UniProt Q80TR8); experiment: as above

| Molecule | binding [1] | binding [2] |
| --- | --- | --- |
| RAD50 (from UniProt P70388 1-1312) | binds | binds |
| Vprbp (DCAF1) (from UniProt Q80TR8 1-1506) | binds | – |
| COPS3 (from UniProt O88543 1-423) | binds | binds |
| RBBP6 (from UniProt P97868 1-1790) | binds | binds |
| B1 | binds | binds |
| B2 | binds | binds |
| B3 | binds | – |
| B4 | binds | binds |
| B5 | binds | – |
